Screen size: about 300,000 compounds; about 5,400 (1.8%) were called active. The shares of active, inactive and inconclusive entries below differ from those in the screen. Calls follow the shape of the full dose curve; tested in HEK293 cells. Potencies beside an inconclusive call are fits to weak or partial responses and may not hold up.
Assay: qHTS for inhibitors of binding or entry into cells for Marburg Virus
Conditions: Marburg virus pseudotyped entry inhibition, cell reporter; activity change, negative = inhibition: at 37.8 µM (top of the series) unless noted
% is scaled to controls: 0 for no effect and ±100 for the full control effect; potency is read from the fitted curve at half-maximal effect.

Structure (SMILES)	Potency	activity change, negative = inhibition
C[C@@H](C(=O)NCCc1c[nH]c2ccccc12)[C@H]1C[C@]1(C)[C@H](NC(=O)OCc1ccccc1)c1ccccc1	inconclusive: 29.1 µM [inhibitor, single point]	
Cc1cc(C)c(C(=O)c2ccc(C(=O)N(C(C)C)C(C)C)cc2)c(C)c1		inactive: -32.2%
Cc1cccc(-n2ncc3c2CCCC3NC(=O)C2=CC(=O)CC(C)(C)O2)c1C (stereo not drawn)	inconclusive: 2.51 µM [inhibitor, partial curve, poor fit]	
O=C(NCC(c1ccc(F)cc1)N1CCOCC1)c1cccnc1Sc1ccccc1Cl (stereo not drawn)	inconclusive: 10 µM [inhibitor, partial curve, poor fit]	
Cc1cccc(-c2nc3c4ccccc4nc(NCCc4ccccc4)n3n2)c1		inactive: 14.7% [at 46.1 µM]
CCOC(=O)c1ccc(NC(=O)c2ccccc2N(C)S(=O)(=O)c2ccccc2)cc1	inconclusive: 11.2 µM [inhibitor, single point]	
Cc1cc(NCc2ccccc2)nc(-c2ccccc2O)n1	inconclusive: 23.1 µM [inhibitor, single point]	
CN1C(=O)Cc2cc(S(=O)(=O)N3CCOCC3)ccc21	inconclusive: 35.5 µM [activator, single point]	
O=c1[nH]c(CN2CCN(S(=O)(=O)/C=C/c3ccccc3)CC2)nc2ccccc12	inconclusive: 11.2 µM [inhibitor, partial curve, poor fit]	
O=C(OCC(=O)N1CCCc2ccccc21)c1cccc(S(=O)(=O)N2CCc3ccccc32)c1	inconclusive: 15.8 µM [inhibitor, single point]	
CCc1nccn1CCC(=O)N1CCCC(Nc2ccc(C(C)C)cc2)C1 (stereo not drawn)	inconclusive: 14.1 µM [inhibitor, partial curve, poor fit]	
Cc1ccccc1Nc1nc(N)nc(COC(=O)c2cccc(S(=O)(=O)NCc3ccccc3)c2)n1	inconclusive: 20 µM [inhibitor, single point]	
COc1ccc(CNC(=O)c2ccc3c(c2)N(Cc2c(F)cccc2Cl)C(=O)CS3)cc1	active: 11.2 µM	
C=CCn1c(COc2cccc3cccnc23)nnc1SCC(=O)OC		inactive: 0.388%
CC(=O)Nc1cccc(OCC(=O)NS(=O)(=O)c2ccc(C)cc2)c1	inconclusive: 1.3 µM [inhibitor, single point]	
O=C(Nc1cccc(F)c1)c1ccc(Br)o1	inconclusive: 2.91 µM [activator, single point]	
Cc1nc(CSc2ccc(Cl)cc2)cs1		inactive: 27.3%
Cc1nnc(SCC(=O)Nc2ncc(S(=O)(=O)c3ccc([N+](=O)[O-])cc3)s2)s1	inconclusive: 6.31 µM [inhibitor, single point]	
CCNC(=S)NNC(=O)c1cccn(Cc2ccc(Cl)cc2)c1=O	inconclusive: 8.91 µM [activator, partial curve, poor fit]	
Fc1ccc(-c2nnn(Cc3ccccc3Cl)n2)cc1	inconclusive: 35.5 µM [activator, single point]	
COc1cccc(C(=O)NCCCc2ccccc2)c1OC		inactive: 22% [at 46.1 µM]
O=C(c1ccc(Cl)c(S(=O)(=O)NCc2ccco2)c1)N1CCN(c2ccccc2F)CC1	inconclusive: 17.8 µM [inhibitor, single point]	

Structure (SMILES)	Potency	activity change, negative = inhibition
CCOC(=O)c1c(/N=C/C2=C(O)CCCC2=O)sc(C)c1C		inactive: 1.96%
O=C(Nc1ccc(N2CCOCC2)c(Cl)c1)c1ccc(Cl)cc1		inactive: 1.96%
O=S(=O)(c1cccc(-c2csc(-c3ccccc3)n2)c1)N1CCOCC1	inconclusive: 16.4 µM [inhibitor, single point]	
CC(C)(C)n1nc2c(c1NC(=O)Cc1ccccc1)CS(=O)(=O)C2	inconclusive: 22.4 µM [activator, single point]	
Cc1nc(C(=O)NNC(=O)c2ccc(C(F)(F)F)cc2)cs1	inconclusive: 14.1 µM [inhibitor, partial curve]	
COc1ccccc1NC(=O)c1sc2ncn(CC(=O)Nc3ccccc3)c(=O)c2c1C	inconclusive: 11.2 µM [inhibitor, single point]	
CN1CCN(Cc2cc(COCc3ccccc3)c3cccnc3c2O)CC1	active: 6.31 µM	
Cc1ccc(S(=O)(=O)c2nc(S(=O)(=O)c3ccccc3)sc2NCCCOC(C)C)cc1	active: 3.98 µM	
COc1ccc(C(=O)NC(=S)NNC(=O)c2cccc(C)c2)cc1	inconclusive: 35.5 µM [inhibitor, single point]	
CCOc1ccccc1C(=O)N[C@H](C(=O)OCc1cc([N+](=O)[O-])cc2c1OCOC2)C(C)C	active: 11.2 µM	
CCCS(=O)(=O)N1CCN(CC2CC3C=CC2C3)CC1 (stereo not drawn)	inconclusive: 35.5 µM [activator, single point]	
Cc1ccc2nc(-c3ccncc3)[nH]c2c1	inconclusive: 7.08 µM [activator, partial curve, poor fit]	
COC(=O)c1ccccc1NC(=S)NC(=O)C1CCCCC1		inactive: 8.66%
COc1cc2c(cc1OC)CN(CCC(C)c1ccc(Cl)cc1)CC2 (stereo not drawn)	inconclusive: 10 µM [inhibitor, partial curve, poor fit]	
COc1ccc(-c2nc3cc(NC(=O)CSc4ccc(C)cc4)ccc3o2)cc1	inconclusive: 6.31 µM [activator, single point]	
COc1cc(/C=N\NC(=O)c2cccnc2)ccc1OC(=O)c1ccccc1Cl		inactive: 23.2%
Clc1ccccc1/C=C/c1nc(-c2ccccn2)no1	inconclusive: 1 µM [inhibitor, full curve, poor fit]	
O=C(Nc1ncc(Cc2ccccc2)s1)C1CCCO1 (stereo not drawn)	inconclusive: 16.4 µM [inhibitor, single point]	
COc1ccccc1C1OC(c2cccc([N+](=O)[O-])c2)=NN1C(C)=O (stereo not drawn)		inactive: -12.7% [at 46.1 µM]
Cc1cc(NC(=O)CCC(=O)N(CCC(C)C)C(C(=O)NC2CCCC2)c2ccccc2C)no1 (stereo not drawn)	inconclusive: 6.31 µM [inhibitor, partial curve]	
COC(=O)CSc1nnc(CNc2nc(-c3ccccc3)cs2)n1C	inconclusive: 11.2 µM [activator, partial curve, poor fit]	
